Data reported in PubChem BioAssay AID1259415 (National Center for Advancing Translational Sciences (NCATS), 2018).
Among all 410,000 compounds or so, about 18,000 (4.4%) were called active. All entries are inconclusive by the source's own rule. Clear calls are listed elsewhere. Rule as the data show it: active = activity change below about -60%; inconclusive = no clear call, values can overlap the other calls; inactive = above about -39%.

experiment: qHTS Assay for inhibitors of the human cytomegalovirus (HCMV); conditions: HFF cells, HCMV-luciferase reporter, 72 h; at 57.5 µM; hits give low values
Source text: NCGC Assay Overview: Infection with human cytomegalovirus (HCMV) continues to pose significant threats for pregnant women and immunocompromised hosts. HCMV causes serious morbidity and mortality in transplant recipients, and congenital HCMV is the leading infectious cause of mental retardation and deafness in children. In the 1990s, the annual costs associated with the disease burden of congenital CMV were estimated at around $2 billion. A HCMV vaccine is not available yet and HCMV therapies result in intolerable side effects and emergence of drug resistant viruses. […] Towards this goal we have developed and characterized a luciferase HCMV reporter that was initially used in 96 well plates and then optimized to 1536-well plates for utilization in screening of the MLSMR collection, the NGCG diversity collection and the NCGC Pharmaceutical Collection of approved and investigational drugs.
NCGC Assay Protocol Summary:
This is a cell-based assay for HCMV inhibition in HFFs cells. The screening used 2 compound doses and the HCMV-luciferase at MOI of 1 PFU/cell. Cells were treated and infected with HCMV. At 72 h post infection cell lysates were collected and luciferase activity was determined using the Glomax-Multi + Detection System (Promega, Madison, WI). Data were normalized to the controls for basal activity (buffer only) and known HCMV inhibitors Salinmoycin. […]
% is scaled to controls: 0 for no effect and ±100 for the full control effect.

SMILES | activity change, negative = inhibition
Cn1c(=O)[nH]cc(N(CCCl)CCCl)c1=O | inconclusive: -54.6%
